From publication PMC6789782, “Safety Pharmacological Evaluation of the Coffee Component, Caffeoylquinic Acid, and Its Metabolites, Using Ex Vivo and In Vitro Profiling Assays” (Pharmaceuticals, 2019)

Legend:
[1] = system: isolated perfused guinea pig heart; test: Langendorff perfused heart assay; conditions: laboratory background data of drugs; n = 3
Experimental: After injection of heparin sodium (100 unit/body, AY Pharmaceuticals Co., Ltd.) into the jugular vein, the animals were exsanguinated. […] A stainless-steel cannula was inserted in the aorta, followed by attachment to the Langendorff apparatus (Physio-Tech Co., Ltd., Tokyo, Japan). The attached heart was perfused with KH solution at 37.0 ± 0.2 °C. Before use, the KH solution was aerated by a gas mixture (95%O2 + 5%CO2) for 30 min or longer. The perfusion pressure was maintained at 70 mmHg.
DMSO solutions at 1, 10, and 100 mM were diluted 1000-fold with the KH solution to make test solutions of 1, 10, and 100 μM, respectively. The test solutions were cumulatively applied at a flow rate of 20 mL/min for 10 min with each concentration.
An ECG signal was recorded using electrodes fixed on the ventricular apex (+), and a stainless-steel cannula was inserted in the aorta (−), and LVP was recorded from the balloon catheter placed in the left ventricle. The ECG signals were amplified with an amplifier (DAM50; World Precision Instruments, Inc.) and LVPs were monitored with a Pressure Monitor 4 (Living Systems Instrumentation). Both of the waveforms were recorded with computer software (1000 Hz; iox2 and ecgAUTO3; emka Technologies).
Before measurement, the in-balloon pressure was adjusted so that the diastolic blood pressure would be in the range of 0 to 10 mmHg. The cardiac parameters, such as HR, PR interval, QRS duration, QT interval, QTc interval (Fridericia’s formula: QTc = QT/RR^1/3), LVPSP, left-ventricular end diastolic pressure (LVEDP), and LV dP/dt max, were measured.
Data are expressed as mean (± SD). The measured % changes from the pre-application value were used for analyses. Williams test was carried out between the solvent-control and test compound. Student’s t-test was carried out between the solvent-control and positive-control. […] The data from the solvent control and drug groups were tested by F test for homogeneity of variance. F test was performed at the significance level of 5%. When the variances were homogeneous, Student’s t-test was subsequently performed. When the variances were nonhomogeneous, Welch t-test was selected.

[2] = cited from earlier work

## O=C(O)COCCN1CCN([C@H](c2ccccc2)c2ccc(Cl)cc2)CC1 [Levocetirizine]
[1]
  Lowest concentration indicating statistically significant % change to solvent control, HR: 30 µM
  Lowest concentration indicating statistically significant % change to solvent control, LV dP/dtmax: 100 µM
  Lowest concentration indicating statistically significant % change to solvent control, LVPSP: 10 µM
  Lowest concentration indicating statistically significant % change to solvent control, PR: 10 µM
  Lowest concentration indicating statistically significant % change to solvent control, QRS: 100 µM
  Lowest concentration indicating statistically significant % change to solvent control, QT: 30 µM
[2]
  EfTPC (effective free therapeutic plasma concentration): 1.286 [25] µM
